Like-named read-outs stand apart in the source and are kept apart here. No constants are given. Whether binding was seen depends on the method and setting. In cells and extracts the contact can be indirect. Here binding means that the protein was enriched with, or labelled near, the bait; the list need not be complete. Each block holds one molecule with its values, some of them ahead of it.
Tests used:
Assay in all cases: affinity purification with mass spectrometry; C-terminal Flag-HA bait transiently expressed in S2R+ cells; clarified lysate with RNase inhibitors, no crosslinking; single-step anti-HA purification, extensive washes, release by competition; LC/MS/MS; biological duplicate
[1] = target: B52 (Drosophila melanogaster) (UniProt P26686)
[2] = target: U2AF50 (Drosophila melanogaster) (UniProt Q24562)
[3] = target: T1, PS (Drosophila melanogaster)
T1 sequence: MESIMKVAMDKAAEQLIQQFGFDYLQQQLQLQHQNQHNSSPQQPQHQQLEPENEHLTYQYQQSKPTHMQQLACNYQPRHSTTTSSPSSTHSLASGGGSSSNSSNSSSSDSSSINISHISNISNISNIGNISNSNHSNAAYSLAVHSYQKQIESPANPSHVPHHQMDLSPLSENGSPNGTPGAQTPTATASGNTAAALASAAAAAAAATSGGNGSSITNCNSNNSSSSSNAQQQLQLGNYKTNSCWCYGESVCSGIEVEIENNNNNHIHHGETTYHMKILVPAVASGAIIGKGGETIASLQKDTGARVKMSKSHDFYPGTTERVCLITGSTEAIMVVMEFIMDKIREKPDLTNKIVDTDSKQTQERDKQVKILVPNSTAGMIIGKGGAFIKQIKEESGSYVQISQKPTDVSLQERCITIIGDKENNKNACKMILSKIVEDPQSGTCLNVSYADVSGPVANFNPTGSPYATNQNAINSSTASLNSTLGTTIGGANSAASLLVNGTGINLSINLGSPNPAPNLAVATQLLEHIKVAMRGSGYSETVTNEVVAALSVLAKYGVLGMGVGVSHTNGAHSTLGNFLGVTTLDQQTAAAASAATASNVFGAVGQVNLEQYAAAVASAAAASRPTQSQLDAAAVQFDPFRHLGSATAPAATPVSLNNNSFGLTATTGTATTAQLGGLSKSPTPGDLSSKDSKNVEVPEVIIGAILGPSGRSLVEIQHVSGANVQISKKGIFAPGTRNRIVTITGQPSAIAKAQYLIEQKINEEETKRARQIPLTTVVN

Amino acid sequences for entries named in this document (tags omitted). A change or cut given only in a name is not applied to a line headed by its entry. Chains listed by the source or under a name are the forms on record and can include a tag or linker.
B52 (P26686, form named): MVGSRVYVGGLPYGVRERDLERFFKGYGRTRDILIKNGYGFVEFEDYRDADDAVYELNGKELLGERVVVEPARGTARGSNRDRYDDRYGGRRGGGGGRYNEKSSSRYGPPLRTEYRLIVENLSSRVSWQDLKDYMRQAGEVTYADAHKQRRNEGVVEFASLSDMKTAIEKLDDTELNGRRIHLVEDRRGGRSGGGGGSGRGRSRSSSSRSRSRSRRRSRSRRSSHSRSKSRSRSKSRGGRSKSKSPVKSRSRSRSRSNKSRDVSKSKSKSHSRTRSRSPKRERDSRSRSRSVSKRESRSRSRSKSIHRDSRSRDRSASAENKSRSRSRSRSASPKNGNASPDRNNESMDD
UniProt Q24562: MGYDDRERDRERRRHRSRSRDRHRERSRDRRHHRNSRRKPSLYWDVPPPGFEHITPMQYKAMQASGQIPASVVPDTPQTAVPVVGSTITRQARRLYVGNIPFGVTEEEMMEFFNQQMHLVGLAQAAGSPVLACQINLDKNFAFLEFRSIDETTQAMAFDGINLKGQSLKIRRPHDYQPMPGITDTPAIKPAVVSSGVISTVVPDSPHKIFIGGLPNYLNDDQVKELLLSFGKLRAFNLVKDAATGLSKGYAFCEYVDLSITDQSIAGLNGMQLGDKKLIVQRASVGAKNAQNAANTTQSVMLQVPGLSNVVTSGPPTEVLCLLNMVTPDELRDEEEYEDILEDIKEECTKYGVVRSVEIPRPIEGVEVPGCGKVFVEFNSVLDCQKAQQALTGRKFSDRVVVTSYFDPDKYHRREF
UniProt Q9VEP9: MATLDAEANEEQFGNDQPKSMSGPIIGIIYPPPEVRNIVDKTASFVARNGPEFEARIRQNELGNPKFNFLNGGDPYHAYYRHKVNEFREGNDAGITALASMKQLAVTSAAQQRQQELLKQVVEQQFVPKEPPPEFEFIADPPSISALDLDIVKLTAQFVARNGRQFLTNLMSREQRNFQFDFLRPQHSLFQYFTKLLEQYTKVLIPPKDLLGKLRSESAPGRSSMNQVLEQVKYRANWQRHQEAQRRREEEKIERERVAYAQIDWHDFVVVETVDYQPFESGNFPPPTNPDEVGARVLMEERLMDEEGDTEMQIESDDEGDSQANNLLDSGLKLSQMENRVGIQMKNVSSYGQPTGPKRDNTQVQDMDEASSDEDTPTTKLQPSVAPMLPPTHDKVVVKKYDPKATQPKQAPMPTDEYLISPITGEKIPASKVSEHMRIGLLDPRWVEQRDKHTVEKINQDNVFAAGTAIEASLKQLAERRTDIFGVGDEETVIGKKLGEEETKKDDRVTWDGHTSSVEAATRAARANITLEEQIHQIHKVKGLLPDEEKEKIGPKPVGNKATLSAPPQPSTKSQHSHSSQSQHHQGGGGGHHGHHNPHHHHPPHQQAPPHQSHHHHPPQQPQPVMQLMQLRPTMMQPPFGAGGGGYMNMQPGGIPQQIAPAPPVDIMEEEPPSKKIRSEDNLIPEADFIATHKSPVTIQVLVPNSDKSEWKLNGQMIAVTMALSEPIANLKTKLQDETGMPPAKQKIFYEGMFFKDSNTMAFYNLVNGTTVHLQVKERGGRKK
UniProt Q9VAX8: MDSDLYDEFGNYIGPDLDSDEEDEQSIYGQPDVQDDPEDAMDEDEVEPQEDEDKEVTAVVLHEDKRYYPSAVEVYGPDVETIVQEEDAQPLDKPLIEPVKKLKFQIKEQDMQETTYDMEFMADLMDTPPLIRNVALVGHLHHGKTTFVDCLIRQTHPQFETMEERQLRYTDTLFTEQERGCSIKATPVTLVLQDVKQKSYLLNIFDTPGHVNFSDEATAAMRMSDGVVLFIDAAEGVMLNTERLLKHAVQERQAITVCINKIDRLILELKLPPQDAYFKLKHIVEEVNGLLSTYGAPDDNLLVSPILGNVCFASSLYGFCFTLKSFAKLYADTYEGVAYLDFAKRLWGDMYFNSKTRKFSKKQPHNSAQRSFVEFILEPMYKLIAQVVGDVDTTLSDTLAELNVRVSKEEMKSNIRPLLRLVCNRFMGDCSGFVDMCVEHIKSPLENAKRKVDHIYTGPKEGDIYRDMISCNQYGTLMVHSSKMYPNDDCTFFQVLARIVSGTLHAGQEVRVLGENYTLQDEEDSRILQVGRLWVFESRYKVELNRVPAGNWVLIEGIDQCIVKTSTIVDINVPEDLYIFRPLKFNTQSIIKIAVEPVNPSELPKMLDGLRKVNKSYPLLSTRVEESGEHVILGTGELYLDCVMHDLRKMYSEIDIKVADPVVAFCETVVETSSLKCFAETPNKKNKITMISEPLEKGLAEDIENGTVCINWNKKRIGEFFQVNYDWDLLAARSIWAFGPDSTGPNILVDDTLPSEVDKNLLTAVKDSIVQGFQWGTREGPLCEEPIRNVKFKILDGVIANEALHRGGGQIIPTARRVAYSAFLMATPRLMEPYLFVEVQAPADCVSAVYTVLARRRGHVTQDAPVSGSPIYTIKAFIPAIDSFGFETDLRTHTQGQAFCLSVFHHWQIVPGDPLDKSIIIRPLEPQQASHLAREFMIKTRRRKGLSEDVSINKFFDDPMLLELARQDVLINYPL

[4] = target: SYP (Drosophila melanogaster)
[5] = target: B52 (Drosophila melanogaster) (UniProt P26686); remark: listed apart in the source

Molecule: CG16941 (from UniProt Q9VEP9)
binding [1]: binds
binding [2]: binds

Molecule: MSI (Drosophila melanogaster)
binding [3]: binds

B1: HOW (protein, UniProt O01367 1-405)
chain: MSVCESKAVVQQQLQQHLQQQAAAAVVAVAQQQQAQAQAQAQAQAQQQQQAPQVVVPMTPQHLTPQQQQQSTQSIADYLAQLLKDRKQLAAFPNVFTHVERLLDEEIARVRASLFQINGVKKEPLTLPEPEGSVVTMNEKVYVPVREHPDFNFVGRILGPRGMTAKQLEQETGCKIMVRGKGSMRDKKKEDANRGKPNWEHLSDDLHVLITVEDTENRATVKLAQAVAEVQKLLVPQAEGEDELKKRQLMELAIINGTYRDTTAKSVAVCDEEWRRLVAASDSRLLTSTGLPGLAAQIRAPAAAPLGAPLILNPRMTVPTTAASILSAQAAPTAAFDQTGHGMIFAPYDYANYAALAGNPLLTEYADHSVGAIKQQRRLATNREHPYQRATVGVPAKPAGFIEIQ
binding [4]: binds

Next, values leading:

binding [1]: binds
Molecule: CG4849 protein (from UniProt Q9VAX8)

binding [5]: binds
B2: CG13900 (protein, UniProt Q9W0M7 1-1227)
chain: MYLYNLTLQKATGVTHAVHGNFSGGKQQEVLLSRGKSLELLRPDSNTGKVHTLLSTEIFGCVRALMAFRLTGGTKDYIVVGSDSGRIVILEYNPSKNALEKVHQETFGKSGCRRIVPGQYFAIDPKGRAVMIGAVEKQKLAYIMNRDTQARLTISSPLEAHKSNTLTYHMVGVDVGFDNPMFACLEIDYEEADMDPSGDAAQRTQQTLTFYELDLGLNHVVRKYSEPLEEHANFLVSVPGGNDGPSGVLICSENYLTYKNLGDQHDIRCPIPRRRNDLDDPERGMIFICSATHRTKSMYFFLLQTEQGDIFKITLETDDDVVSEIKLKYFDTVPPATAMCVLKTGFLFVASEFGNHYLYQIAHLGDDDDEPEFSSAMPLEEGETFFFAPRALKNLVLVDELPSFAPIITSQVADLANEDTPQLYVLCGRGPRSTLRVLRHGLEVSEMAVSELPGNPNAVWTVKKRADDEFDAYIIVSFVNATLVLSIGETVEEVTDSGFLGTTPTLCCAALGDDALVQVYPDGIRHIRSDKRVNEWKAPGKKSITKCAVNQRQVVITLSGRELVYFEMDPTGELNEYTERSEMPAEIMCMALGTVPEGEQRSWFLAVGLADNTVRILSLDPNNCLTPCSMQALPSPAESLCLVEMGHTESTTQGGLDDDAPAQRSGNNKGTIYLNIGLSNGVLLRTVLDPVSGDLADTRTRYLGSRPVKLFRIKMQGSEAVLAMSSRTWLSYYHQNRFHLTPLSYETLEYASGFSSEQCSEGIVAISTNTLRILALEKLGAVFNQVAFPLQYTPRTFVIHPDTGRMLIAETDHNAYTEDTKSARKEQMAEEMRSAAGDEERELAREMANAFINEVLPEDVFSSPKAGLGLWASQIRCLDAMHGQTMFSVPLTQNEAIMSMAMLKFSIAADGRYYLAVGIAKDLQLNPRISQGGCIDIYKIDPTCSSLEFMHRTDIDEIPGALCGFQGRLLAGCGRMLRIYDFGKKKMLRKCENKHIPYQIVNIQAMGHRVYVSDVQESVFFIRYRRAENQLIIFADDTHPRWVTATTLLDYDTIAIADKFGNLSIQRLPHSVTDDVDEDPTGTKSLWDRGLLSGASQKSENICSFHVGEIIMSLQKATLIPGGSEALIYATLSGTVGAFVPFTSREDYDFFQHLEMHMRNENPPLCGRDHLSYRSSYYPVKNVLDGDLCEQYLSIEAAKQKSIAGDMFRTPNQICKKLEDIRTRYAF

Source: article PMC4617965
